# Experimental data from paper PMC6459869.
# These are yes or no findings as the source states them, for the method shown. Binding seen in cells or lysates may run through a third protein. Some results given as binding are weak or reduced against the parent protein; the word gives no strength.
# Molecular target: EZH2 (wild type, endogenous in WT mouse ESCs) (mouse (endogenous in E14TG2a ESCs)), Q61188
# Assay: co-IP; immunoprecipitation of EZH2 from 1 mg total protein extract of mouse ESC lines with homemade anti-EZH2 (AC22) cross-linked sepharose beads, 3 to 4 h at 4 °C; S300 buffer (20 mM Tris-HCl pH 8.0, 300 mM NaCl, 10% glycerol, 0.2% NP-40), 5 washes; western blot
# Details: remark: other sources report otherwise
binder,measurement,value
"SUZ12, Q80U70 1-741 (protein) MAPQKHGGGGGGGSGPSAGSGGGGFGGSAAAVAAAASGGKSGGGGCGGGGSYSASSSSAAAAAAAAGAAVLPVKKPKMEHVQADHELFLQAFEKPTQIYRFLRTRNLIAPIFLHRTLTYMSHRNSRTSIKRKTFKVDDMLSKVEKMKGEQESHSLSAHLQLTFTGFFHKNDKPSQNSENEQNSVTLEVLLVKVCHKKRKDVSCPIRQVPTGKKQVPLNPDLNQTKPGNFPSLAVSSNEFEPSNSHMVKSYSLLFRVTRPGRREFNGMINGETNENIDVSEELPARRKRNREDGEKTFVAQMTVFDKNRRLQLLDGEYEVAMQEMEECPISKKRATWETILDGKRLPPFETFSQGPTLQFTLRWTGETNDKSTAPVAKPLATRNSESLHQENKPGSVKPAQTIAVKETLTTELQTRKEKDNSNESRQKLRIFYQFLYNNNTRQQTEARDDLHCPWCTLNCRKLYSLLKHLKLCHSRFIFNYVYHPKGARIDVSINECYDGSYAGNPQDIHRQPGFAFSRNGPVKRTPITHILVCRPKRTKASMSEFLESEDGEVEQQRTYSSGHNRLYFHSDTCLPLRPQEMEVDSEDEKDPEWLREKTITQIEEFSDVNEGEKEVMKLWNLHVMKHGFIADNQMNHACMLFVENYGQKIIKKNLCRNFMLHLVSMHDFNLISIMSIDKAVTKLREMQQKLEKGESATPSNEEIAEEQNGTANGFSETNSKEKALETDGVSGVPKQSKKQKL",binding,binds
